Measured values published in the supplement of paper PMC9763283.

Key:
Assay in all cases: area under growth-rate inhibition curve (AUC GRI) (dimensionless (GR-based AUC)); higher = less growth inhibition
Settings in all cases: exposure time: 72 h; concentrations: 0.1, 1, 10 uM
BT474-P = system: BT474-P
In short: (§1)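 The area under the growth-rate inhibition curve was measured in six breast cancer cell line models, covering triple-negative lines and HER2+ lines, both parental and resistant to a two-drug combination. Cells were exposed to compound at 0.1, 1 or 10 µM for 72 h, fixed in 4% paraformaldehyde, and nuclei were stained with Hoechst 33342 or DAPI for imaging and counting. Day 0 plates, untreated Day 3 plates and DMSO controls served to correct growth across 2 biological replicates.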

MDA-MB-231 = system: MDA-MB-231
In short: as §1

MDA-MB-468 = system: MDA-MB-468
In short: as §1

SKBR3-P = system: SKBR3-P
In short: as §1

BT474-LTR = system: BT474-LTR
In short: as §1

SKBR3-LTR = system: SKBR3-LTR
In short: as §1

## CN1C2CCC1CC(OC(=O)C(O)c1ccccc1)C2.[Br-].[H+] (stereo unspecified) [Homatropine Bromide]
BT474-P
  area under growth-rate inhibition curve: 1.02
MDA-MB-231
  area under growth-rate inhibition curve: 1.03
MDA-MB-468
  area under growth-rate inhibition curve: 1.04
SKBR3-P
  area under growth-rate inhibition curve: 1.04
BT474-LTR
  area under growth-rate inhibition curve: 1.11
SKBR3-LTR
  area under growth-rate inhibition curve: 1.08
